Results on 18 compounds are retold here after PubChem BioAssay AID493014 (National Center for Advancing Translational Sciences (NCATS), 2011).

This test is described as follows: qHTS Assay to Find Inhibitors of Chronic Active B-Cell Receptor Signaling. The following applies: ABC-DLBCL IkBa-CBG/CBR reporter, luminescence ratio (green luciferase fused to IkBa over red control in TMD8 lymphoma cells), 4 h. The gist of the method:
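TMD8 ABC-DLBCL cells carrying doxycycline-inducible green luciferase fused to IkappaBalpha plus unfused red luciferase were exposed to compounds (up to 46 uM) for 4 hrs at 37C. Activity came from the overlap-corrected green/red luminescence ratio.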

Setting [1] is: measured here: CBR red luminescence, cell number.
The mark [2] stands for this setting: measured here: IkBa-CBG green luminescence.

Some of the results follow. The main result of the screen is listed elsewhere. These columns were measured beside it and carry no call. Compounds called inactive in the main read-out are mostly missing here. The note in brackets gives the kind of curve behind each potency; many fits are weak.

As to `CCC1=Nc2cc(C(=O)NCCCOC(C)C)ccc2Sc2ccc(C)cc21`, the AC50 is, setting by setting: under setting [1], 5.62 µM [rising, full curve]; under setting [2], 2.82 µM [falling, full curve].
Regarding `Cc1noc(C)c1CSCC(=O)Nc1nc2ccccc2s1`, the concentration at half-maximal activity (AC50) under setting [1] is 22.4 µM [falling, single point].
For the compound `COc1ccc(-c2cnnn2-c2ccc(NC(=O)c3ccc(S(=O)(=O)N4CCCCC4)cc3)cc2)cc1OC`, the AC50 under setting [2] was 2.59 µM [falling, full curve].
As to `Cc1cnc(NC(=O)Cc2ccccc2Cl)s1`, the AC50 under setting [1] is 2.82 µM [falling, partial curve, poor fit].
Turning to `COc1cccc(C(=O)Nc2nnc(-c3ccccc3)s2)c1OC`, the AC50 under setting [1] was 2.82 µM [falling, partial curve, poor fit].
Take `CN1C2C=C(N(CCc3c[nH]c4ccccc34)C(=O)c3ccc(Cl)cc3)CC1CC2` (centres undefined): under setting [1], the AC50 was 25.1 µM [falling, single point].
Take `CCOC(=O)C/C(C)=N/NC(=O)Nc1ccccc1`: under setting [1], the AC50 is 2.59 µM [rising, single point].
Consider `COc1ccc(C)cc1NC(=O)C(OC(=O)c1cnc(C)cn1)c1ccccc1` (centres undefined), for which the AC50 under setting [1] was 13 µM [rising, partial curve, poor fit].
`Cc1sc(NC(=O)c2ccco2)c(CN2CCN(c3ccccn3)CC2)c1C`: under setting [1], the half-maximal activity concentration (AC50) is 14.1 µM [falling, single point].
On the same count and under the same terms, under `CCN(CCCNC(=O)CCCN1C(=O)COc2ccc(C)cc21)c1cccc(C)c1` stands 15.8 µM [falling, single point]; under `CC(=O)Nc1ccc(NC(=O)C(C)OC(=O)CN(C)S(=O)(=O)c2ccc(Cl)cc2)cc1` (centres undefined), 4.11 µM [rising, single point]; under `CCOc1cc(/C=N/O)ccc1OCc1ccc(F)cc1`, 1.84 µM [rising, full curve].
Take `COc1ccccc1N(CC(=O)Nc1cc(C)on1)S(=O)(=O)c1ccc(Cl)cc1`: the half-maximal activity concentration (AC50) under setting [1] is 0.326 µM [falling, full curve, poor fit].
Turning to `COC(=O)c1c(C(=O)OC)c2n(c1C)CCS2`, the AC50 under setting [1] is 25.1 µM [falling, single point].
Regarding `CC(=O)O/N=C(\N)c1cnn2c(C(F)(F)F)cc(C(F)(F)F)nc12`, the AC50 under setting [1] is 25.1 µM [rising, single point].
Turning to `COc1cc(CN2CCC(C(=O)NC3CCCC3)CC2)ccc1O`, the AC50 under setting [1] is 20.6 µM [rising, partial curve, poor fit].
Still for that read-out and setting: under `Cc1ccc(S(=O)(=O)N(Cc2ccc(C(F)(F)F)cc2)C(=O)N2CCN(C)CC2)cc1` stands 3.66 µM [rising, partial curve, poor fit]; under `O=C(O)COn1c(-c2ccccc2)nc2ccc(Cl)cc21`, 8.91 µM [falling, partial curve].
